Assay results as given in PubChem BioAssay AID248 (DTP/NCI, 2004).
The list shows only some results of the screen, not a fair sample: it is rich in T/C values a quarter to a half above the control, in often repeated tests (any T/C) and in doses without a T/C. Further doses and runs are listed elsewhere. T/C: endpoint of the treated group in % of that of the vehicle group. Some doses have a count of surviving animals in place of a T/C: the source files T/C as zero there, which appears to mark a toxic dose or a test without result, not a measured value. Some survivor counts are full or nearly so, which does not show that the dose was tolerated: survival well below the control is almost never listed, so the zero probably covers shortened survival too. Counts of survivors are from the toxicity check (mostly the fifth day) where no day follows; animals may have died later. Schedule codes are those of the source, read here as Q, the interval in days (D) or hours (H), X, the number of doses. Some entries hold several experiments; their values stand side by side, smallest first. Where survival is the endpoint, the PubChem record calls one and a half times the control and up active, and a quarter to a half above the control has no call in these data; cut-offs in other NCI protocols can differ.

Tested on: L1210 leukemia ip in BDF1 mice, survival T/C
Test: NCI In Vivo Anticancer Drug Screen. Data for tumor model L1210 Leukemia (intraperitoneal) in B6D2F1 (BDF1) mice
Settings: T/C endpoint: mean survival time, higher T/C = longer survival
[1] = dose: 100.0 mg/kg/injection, schedule: Q01DX009 (ip), vehicle: saline with Tween-80
[2] = dose: 200.0 mg/kg/injection, schedule: Q01DX009 (ip), vehicle: saline with Tween-80
[3] = dose: 400.0 mg/kg/injection, schedule: Q04DX003 (ip), vehicle: saline with Tween-80
[4] = dose: 50.0 mg/kg/injection, schedule: Q01DX009 (ip), vehicle: saline with Tween-80
[5] = dose: 100.0 mg/kg/injection, schedule: Q01DX001 (ip), vehicle: saline
[6] = dose: 0.44 mg/kg/injection, schedule: Q01DX009 (ip), vehicle: saline
[7] = dose: 2.5 mg/kg/injection, schedule: Q01DX001 (ip), vehicle: saline

## Cc1cc(OC(=O)Nc2cccc(Cl)c2C)ccc1[N+](=O)[O-]
[1]
  T/C: 96, 97, 100 % of control
  survivor count: 3 of 3
[2]
  survivor count: 1 of 3
dose: 400.0 mg/kg/injection, schedule: Q01DX009 (ip), vehicle: saline with Tween-80
  survivor count: 2 of 3 and 5 of 6
dose: 400.0 mg/kg/injection, schedule: Q04DX002 (ip), vehicle: saline with Tween-80
  survivor count: 1 of 6
[3]
  survivor count: 2 of 6

## CCCC(=O)OC1=CC(=O)c2ccccc2C1=O
dose: 300.0 mg/kg/injection, schedule: Q01DX001 (ip), vehicle: other
  survivor count: 1 of 6

## O=CNc1ccccc1[N+](=O)[O-]
[3]
  survivor count: 3 of 3

## O=C(Oc1cc([N+](=O)[O-])cc([N+](=O)[O-])c1)C(c1ccccc1)c1ccccc1
[4]
  survivor count: 3 of 3
[1]
  survivor count: 3 of 3
[2]
  survivor count: 3 of 3

## COc1cc(C(C)=O)ccc1OCc1ccccc1
[4]
  survivor count: 6 of 6
[1]
  survivor count: 5 of 6
dose: 150.0 mg/kg/injection, schedule: Q01DX009 (ip), vehicle: saline with Tween-80
  survivor count: 5 of 6
[2]
  survivor count: 5 of 6
dose: 300.0 mg/kg/injection, schedule: Q01DX009 (ip), vehicle: saline with Tween-80
  survivor count: 6 of 6

## COC(=O)C1C(=O)OC(C)(C)C1c1ccccc1 (stereo not drawn)
[5]
  T/C: 134 % of control

## Nc1c(-c2ccccc2)nnn1-c1cccc(Cl)c1
dose: 200.0 mg/kg/injection, schedule: Q04DX002 (ip), vehicle: gum acacia
  survivor count: 3 of 3
dose: 400.0 mg/kg/injection, schedule: Q04DX002 (ip), vehicle: gum acacia
  survivor count: 3 of 3

## CN(Cc1cnc2nc(N)nc(N)c2n1)c1ccc(C(=O)NC(CCC(=O)NCC(=O)O)C(=O)O)cc1 (stereo not drawn)
dose: 1.0 mg/kg/injection, schedule: Q01DX009 (ip), vehicle: sodium bicarbonate
  T/C: 139 % of control
dose: 2.0 mg/kg/injection, schedule: Q01DX009 (ip), vehicle: sodium bicarbonate
  T/C: 145 % of control
dose: 25.0 mg/kg/injection, schedule: Q01DX009 (ip), vehicle: sodium bicarbonate
  survivor count: 5 of 6
dose: 50.0 mg/kg/injection, schedule: Q01DX009 (ip), vehicle: sodium bicarbonate
  survivor count: 3 of 6

## CC[N+](CC)(CC)CCNC(c1ccccc1)C(Cl)(Cl)Cl (stereo not drawn)
[5]
  survivor count: 0 of 4
dose: 200.0 mg/kg/injection, schedule: Q01DX001 (ip), vehicle: saline
  survivor count: 0 of 4
dose: 400.0 mg/kg/injection, schedule: Q01DX001 (ip), vehicle: saline
  survivor count: 0 of 4

## CCc1ccccc1NC(=O)SCc1ccccc1
dose: 200.0 mg/kg/injection, schedule: Q01DX009 (ip), vehicle: Klucel (hydroxypropylcellulose) (HPC)
  survivor count: 6 of 6

## O=C(NCCCCCCNC(=O)N1CC1)N1CC1
dose: 0.29 mg/kg/injection, schedule: Q01DX009 (ip), vehicle: saline
  T/C: 130 % of control
[6]
  T/C: 138 % of control
  survivor count: 6 of 6
dose: 0.62 mg/kg/injection, schedule: Q01DX009 (ip), vehicle: saline
  T/C: 148 % of control
dose: 1.0 mg/kg/injection, schedule: Q01DX009 (ip), vehicle: saline
  T/C: 141 % of control
dose: 1.2 mg/kg/injection, schedule: Q04DX003 (ip), vehicle: saline
  T/C: 134 % of control
dose: 1.25 mg/kg/injection, schedule: Q01DX009 (ip), vehicle: saline
  T/C: 129 % of control
dose: 1.7 mg/kg/injection, schedule: Q01DX001 (ip), vehicle: saline
  survivor count: 2 of 6
dose: 1.7 mg/kg/injection, schedule: Q04DX003 (ip), vehicle: saline
  T/C: 139 and 148 % of control
[7]
  T/C: 132 and 139 % of control
  survivor count: 2 of 6
dose: 2.5 mg/kg/injection, schedule: Q01DX009 (ip), vehicle: saline
  survivor count: 6 of 6
dose: 3.3 mg/kg/injection, schedule: Q01DX009 (ip), vehicle: saline
  survivor count: 6 of 6
dose: 3.7 mg/kg/injection, schedule: Q01DX001 (ip), vehicle: saline
  survivor count: 2 of 6
dose: 5.0 mg/kg/injection, schedule: Q01DX001 (ip), vehicle: saline
  survivor count: 3 of 6
dose: 10.0 mg/kg/injection, schedule: Q01DX001 (ip), vehicle: saline
  survivor count: 1 of 6
